Data reported in PubChem BioAssay AID588590 (National Center for Advancing Translational Sciences (NCATS), 2011).
Hit rate of the full screen: of about 390,000 compounds, about 4,000 (1%) were called active. Inconclusive means that the source gave no clear call. Such entries were picked first, then a sample of the others. Calls come from the whole dose curve; as a rule, active = well fitted inhibition curve with a large enough effect; inconclusive = small, poorly fitted or top-dose-only effect, or another doubt; inactive = no such curve, though single readings can be large or run the other way. Where the call is inconclusive, the potency comes from a doubtful curve fit.

By UniProt entry, the sequences of proteins in these tests, tags left out. Where a name states a change or a piece, a line headed by the entry shows the natural chain unless it says otherwise.
UniProt Q9UNA4: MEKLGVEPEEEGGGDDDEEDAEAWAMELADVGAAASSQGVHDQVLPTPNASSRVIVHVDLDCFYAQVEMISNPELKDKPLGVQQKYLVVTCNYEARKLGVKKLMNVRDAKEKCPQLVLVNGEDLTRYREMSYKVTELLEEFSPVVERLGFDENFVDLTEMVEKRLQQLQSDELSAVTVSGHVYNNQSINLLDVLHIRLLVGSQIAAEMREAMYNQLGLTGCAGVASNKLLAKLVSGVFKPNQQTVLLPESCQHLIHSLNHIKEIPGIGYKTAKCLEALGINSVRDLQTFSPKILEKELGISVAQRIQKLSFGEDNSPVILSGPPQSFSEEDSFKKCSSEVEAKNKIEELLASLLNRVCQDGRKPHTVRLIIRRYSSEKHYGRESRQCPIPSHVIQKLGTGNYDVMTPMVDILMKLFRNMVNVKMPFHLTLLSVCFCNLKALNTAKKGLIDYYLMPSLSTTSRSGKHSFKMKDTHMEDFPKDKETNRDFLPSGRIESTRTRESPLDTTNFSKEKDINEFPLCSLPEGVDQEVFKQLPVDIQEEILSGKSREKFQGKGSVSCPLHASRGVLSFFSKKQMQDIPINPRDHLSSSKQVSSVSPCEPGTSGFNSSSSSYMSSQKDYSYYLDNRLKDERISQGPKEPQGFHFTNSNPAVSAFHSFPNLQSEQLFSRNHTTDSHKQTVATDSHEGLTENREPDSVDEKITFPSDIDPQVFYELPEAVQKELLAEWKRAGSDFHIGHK

biological target: DNA polymerase iota (Homo sapiens) (UniProt Q9UNA4); test: qHTS for Inhibitors of Polymerase Iota; conditions: Pol iota fluorescent replication assay, 10 min; series mostly up to 115 µM; activity, negative = inhibition: at the top concentration
Procedure, shortened: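 Fluorescent replication assay read twice, at 0 min and 10 min after adding 50 nM (final) substrate. Enzyme (10 nM) and compounds were first incubated 15 min at room temperature; enzyme-free buffer wells were negative controls.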
Potency is the fitted concentration of half-maximal effect.

Row | Compound | Potency | activity, negative = inhibition
1 | O=C(Nc1nc(-c2cc(Cl)sc2Cl)cs1)c1cccs1 | inconclusive: 28.2 µM [inhibitor, partial curve, poor fit] | 
2 | Cc1cc(NC(=O)c2cc(-c3ccco3)on2)nn1Cc1ccc(Cl)cc1 | inconclusive: 56.2 µM [inhibitor, partial curve, poor fit] | 
3 | Cc1ccc(O)c(-c2cc(C(=O)Nc3ccc(S(=O)(=O)Nc4nccc(C)n4)cc3)[nH]n2)c1 | inconclusive: 56.2 µM [inhibitor, partial curve] | 
4 | Cc1ccc(NC(=O)C(c2ccccc2)N(C)C)cc1Cl (stereo unspecified) | inconclusive: 79.4 µM [inhibitor, partial curve, poor fit] | 
5 | COc1cc2c(NC3CCN(C)CC3)nc(N3CCCN(C)CC3)nc2cc1OCCCCC(N)=O |  | inactive: -2.31%
6 | Cc1ccc2c(=O)cc(C(=O)NCc3ccccc3)oc2c1C | inconclusive: 1 µM [inhibitor, full curve, poor fit] | 
7 | CCc1nnc(N/N=C/c2cc(C)c(C)cc2C)n1N | inconclusive: 22.4 µM [inhibitor, full curve, poor fit] | 
8 | CCc1nnc(NC(=O)c2ccccc2NC(=O)C2CCN(C(=O)c3ccco3)CC2)s1 | inconclusive: 89.1 µM [inhibitor, single point] | 
9 | O=C(NCc1ccco1)c1cccc(NC(=O)c2ccco2)c1 | inconclusive: 39.8 µM [inhibitor, partial curve, poor fit] | 
10 | O=S(=O)(NCCc1cn2ccsc2n1)c1ccc(Cl)cc1 |  | inactive: 2.21%
11 | O=c1[nH]c(=O)n(-c2cc(Br)c(O)c(Br)c2)cc1Br | inconclusive: 79.4 µM [inhibitor, partial curve, poor fit] | 
12 | CCOC(=O)c1cc2c(=O)n3ccccc3nc2n(Cc2ccco2)c1=NC(=O)c1ccc(F)cc1 | inconclusive: 70.8 µM [inhibitor, single point] | 
13 | CC(NC(=O)/C(C#N)=C/c1ccc([N+](=O)[O-])o1)c1ccccc1 (stereo unspecified) | active: 20 µM | 
14 | Cc1ccc(S(N)(=O)=O)cc1NC(=O)C1CC2CCC1C2 (stereo unspecified) | inconclusive: 89.1 µM [inhibitor, single point] | 
15 | CCC(Sc1nc2ncccc2o1)C(=O)Nc1cccc(C)c1 (stereo unspecified) |  | inactive: 27.7%
16 | Cc1cc(C)cc(OCCSc2nc(-c3cccs3)nc3cc(=O)[nH]n23)c1 | inconclusive: 89.1 µM [inhibitor, single point] | 
17 | CCc1cc2c(cc3c(=O)n(CC(=O)NCCc4ccccc4)ncn32)s1 |  | inactive: 6.3%
18 | Cc1ccc(Sc2c(C)nn(C(=O)CNS(=O)(=O)c3ccc(F)cc3)c2C)cc1 | inconclusive: 89.1 µM [inhibitor, partial curve, poor fit] | 
19 | O=C(Nc1ccc(Cl)c(C(F)(F)F)c1)C(Cc1ccccc1)NS(=O)(=O)c1cccc2nsnc12 (stereo unspecified) | inconclusive: 89.1 µM [inhibitor, single point] | 
20 | O=C(Nc1ccc(F)c(Cl)c1)NC1CC1 |  | inactive: -25.7%
21 | O=C(CSc1nccn1Cc1ccc(Cl)cc1)Nc1ccc2c(c1)OCO2 |  | inactive: 11.5%

Row | Compound | Potency | activity, negative = inhibition
22 | Cc1ccc(C(=O)Nc2ccc(S(=O)(=O)NCc3ccco3)cc2)cc1 | inconclusive: 15.8 µM [inhibitor, partial curve, poor fit] | 
23 | O=C(COc1ccccc1/C=C\c1nc(O)c([N+](=O)[O-])c(=O)[nH]1)Nc1ccccc1 | inconclusive: 25.1 µM [inhibitor, partial curve, poor fit] | 
24 | Cc1ccc(C(=O)N2CCN3C(=O)c4ccccc4C23c2ccc(Cl)cc2)cc1 (stereo unspecified) |  | inactive: -1.21%
25 | O=C(NC1CCCCC1)N1CCCCCCC1 | inconclusive: 112 µM [inhibitor, single point] | 
26 | O=C1C=CC(=O)N1c1cccc(-c2ccccc2)c1 | inconclusive: 56.2 µM [inhibitor, partial curve, poor fit] | 
27 | CNCCN(C)c1nc(-c2cccs2)nc2ccccc12 | inconclusive: 79.4 µM [inhibitor, single point] | 
28 | C=CCN1C(=O)/C(=C2/Sc3ccccc3N2CCCS(=O)(=O)O)SC1=S | inconclusive: 7.08 µM [inhibitor, full curve, poor fit] | 
29 | Cc1cc2nc(-c3ccc(SCC(=O)Nc4ccc(S(=O)(=O)NC5CC5)cc4)nc3)[nH]c2cc1C | inconclusive: 12.6 µM [inhibitor, partial curve, poor fit] | 
30 | O=C(CN(Cc1ccccc1F)C(=O)Cn1nnc(-c2cccs2)n1)NCC1CCCO1 (stereo unspecified) | inconclusive: 89.1 µM [inhibitor, single point] | 
31 | O=C(C(c1ccccc1)c1ccccc1)N1CCN(CCN2C(=O)c3cccc4cccc(c34)C2=O)CC1 |  | inactive: 15.5%
32 | CCCn1c2ccccc2c2cnn(CC(=O)NCCCN(Cc3ccccc3)C(C)C)c(=O)c21 |  | inactive: 15.1%
33 | CN(CCOC(=O)/C=C/c1ccco1)Cc1ccccc1 | inconclusive: 10 µM [inhibitor, full curve, poor fit] | 
34 | C=CCn1c(-c2cccn(Cc3cccc(Cl)c3)c2=O)n[nH]c1=S | inconclusive: 89.1 µM [inhibitor, single point] | 
35 | COCCn1c(N)c(C(=O)NCc2cccs2)c2nc3ccccc3nc21 | inconclusive: 25.1 µM [inhibitor, partial curve, poor fit] | 
36 | O=C1CSC(=S)N1Cc1cccs1 | inconclusive: 31.6 µM [inhibitor, partial curve, poor fit] | 
37 | COC(=O)c1ccc2c(=O)n(CCCCCC(=O)NCc3ccc(OC)cc3)c(=O)[nH]c2c1 |  | inactive: -15.5%
38 | Cc1ccc2[nH]c(CSc3nnc(NC(=O)COc4ccc(F)cc4)s3)cc(=O)c2c1 | inconclusive: 22.4 µM [inhibitor, partial curve, poor fit] | 
39 | COc1ccc(CCC(=O)NC2CC(=O)N(c3ccccc3)C2)cc1 (stereo unspecified) | inconclusive: 89.1 µM [inhibitor, single point] | 
40 | O=C(NC1CCCCC1)C(c1ccc2ncccc2c1)N(Cc1ccc2c(c1)OCO2)C(=O)c1cccs1 (stereo unspecified) | inconclusive: 79.4 µM [inhibitor, partial curve, poor fit] | 
41 | COc1ccc(N(CC(=O)Nc2cc(OC)ccc2OC)S(=O)(=O)c2c(C)noc2C)cc1 | inconclusive: 70.8 µM [inhibitor, partial curve] | 
42 | CCc1nnc(NC(=O)Cn2nc(-c3ccccc3OC)ccc2=O)s1 | inconclusive: 89.1 µM [inhibitor, single point] | 

Row | Compound | Potency | activity, negative = inhibition
43 | O=C(Nc1ccccc1)c1ccccc1NC(=O)C1CCCCC1 | inconclusive: 89.1 µM [inhibitor, single point] | 
44 | COCCCNC(=S)Nc1ccc(N2CCCCC2)cc1 | inconclusive: 10 µM [inhibitor, full curve, poor fit] | 
45 | COc1ccc(CCNC(=O)CSc2ccccc2)cc1OC | inconclusive: 89.1 µM [inhibitor, partial curve, poor fit] | 
46 | C=CC[n+]1ccnc2ccccc21 | inconclusive: 11.2 µM [inhibitor, partial curve, poor fit] | 
47 | CC#C[C@]1(O)CC[C@H]2[C@@H]3CCC4=CC(=O)CCC4=C3[C@@H](c3ccc(N(C)C)cc3)C[C@@]21C | inconclusive: 31.6 µM [inhibitor, partial curve, poor fit] | 
48 | COC(=O)[C@]1(C)N[C@H](CN(C)S(=O)(=O)c2ccc(F)cc2)[C@@H]2C(=O)N(C)C(=O)[C@@H]21 | inconclusive: 28.2 µM [inhibitor, single point] | 
49 | Cc1ccc2c(c1)sc(-c1ccc(N(C)C)cc1)[n+]2C | inconclusive: 11.2 µM [inhibitor, partial curve, poor fit] | 
50 | CCCCN1C(=N)N([C@@H](C)CN2CCC[C@H]2CN2C(N)=NC[C@@H]2Cc2ccccc2)C[C@H]1[C@H](C)CC | inconclusive: 15.8 µM [inhibitor, partial curve] | 
51 | COCCN1C(=O)/C(=C/c2ccc(N3CCCC3)cc2C)SC1=S | inconclusive: 3.16 µM [inhibitor, partial curve, poor fit] | 
52 | Cc1c(Cl)c([N+](=O)[O-])nn1CC(=O)NCc1ccco1 |  | inactive: 12%
53 | CCc1ccc(CN(C(=O)c2cc(=O)c3ccc(C)cc3o2)C2CCS(=O)(=O)C2)cc1 (stereo unspecified) |  | inactive: -2.34%
54 | Cc1ccc(NC(=O)c2ncn(CCCNCCCN(C)C)n2)cc1C | inconclusive: 20 µM [inhibitor, partial curve, poor fit] | 
55 | CCOC(=O)C1CCCN(C(=O)Cc2ccc(C)cc2)C1 (stereo unspecified) | inconclusive: 15.8 µM [inhibitor, partial curve, poor fit] | 
56 | COc1ccc2c(c1)OC[C@H]1[C@H]2N2C(=O)c3cc(C)ccc3NC(=O)[C@@]2(C)[C@H]1c1ccccc1 | inconclusive: 56.2 µM [inhibitor, partial curve, poor fit] | 
57 | C#CCn1c(=NC(=O)CN2C(=O)CCC2=O)sc2cc(S(N)(=O)=O)ccc21 | inconclusive: 56.2 µM [inhibitor, partial curve, poor fit] | 
58 | Cc1cc(C)cc(NC(=O)C2CCN(S(=O)(=O)c3cccc(-c4noc(C)n4)c3)CC2)c1 | inconclusive: 79.4 µM [inhibitor, partial curve, poor fit] | 
59 | O=C(CN1C(=O)NC2(CCCCC2)C1=O)Nc1ccc(S(=O)(=O)N2CCOCC2)cc1 | inconclusive: 31.6 µM [inhibitor, single point] | 
60 | Cc1cc(C(=O)NNC(=S)NCC(C)C)no1 | inconclusive: 50.1 µM [inhibitor, partial curve, poor fit] | 
61 | Fc1ccc(Br)cc1C1C=C(c2ccc(Br)cc2)Nc2nnnn21 (stereo unspecified) | inconclusive: 8.91 µM [inhibitor, partial curve, poor fit] | 

As entered above.
Potency with CCOC(=O)C1CCCN(C(=O)Cc2ccc(C)cc2)C1 (stereo unspecified) reads inconclusive: 15.8 µM [inhibitor, partial curve, poor fit]
Potency with Cc1ccc(NC(=O)c2ncn(CCCNCCCN(C)C)n2)cc1C reads inconclusive: 20 µM [inhibitor, partial curve, poor fit]
Potency with Cc1cc(C(=O)NNC(=S)NCC(C)C)no1 reads inconclusive: 50.1 µM [inhibitor, partial curve, poor fit]
Potency with COc1ccc2c(c1)OC[C@H]1[C@H]2N2C(=O)c3cc(C)ccc3NC(=O)[C@@]2(C)[C@H]1c1ccccc1 reads inconclusive: 56.2 µM [inhibitor, partial curve, poor fit]
activity, negative = inhibition with Cc1c(Cl)c([N+](=O)[O-])nn1CC(=O)NCc1ccco1 reads inactive: 12%
